In the supplement of paper PMC10849652:
This is one part of the list.

Chains of the proteins cited; added tags and fusions are not shown. Lines headed by an entry give the natural chain unless they say otherwise; changes in a name come on top.
UniProt Q53T59: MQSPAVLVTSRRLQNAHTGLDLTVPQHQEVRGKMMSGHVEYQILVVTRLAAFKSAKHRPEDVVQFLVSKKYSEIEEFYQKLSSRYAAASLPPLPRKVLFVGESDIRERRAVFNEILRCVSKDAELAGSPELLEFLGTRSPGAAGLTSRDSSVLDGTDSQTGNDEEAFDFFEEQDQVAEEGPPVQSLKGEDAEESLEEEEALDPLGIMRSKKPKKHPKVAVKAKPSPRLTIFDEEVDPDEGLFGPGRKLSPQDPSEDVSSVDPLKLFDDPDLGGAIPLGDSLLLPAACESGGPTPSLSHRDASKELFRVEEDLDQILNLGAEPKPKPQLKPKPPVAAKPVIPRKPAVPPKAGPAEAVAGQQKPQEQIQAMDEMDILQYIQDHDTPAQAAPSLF
UniProt P54652, whole entry, looked up: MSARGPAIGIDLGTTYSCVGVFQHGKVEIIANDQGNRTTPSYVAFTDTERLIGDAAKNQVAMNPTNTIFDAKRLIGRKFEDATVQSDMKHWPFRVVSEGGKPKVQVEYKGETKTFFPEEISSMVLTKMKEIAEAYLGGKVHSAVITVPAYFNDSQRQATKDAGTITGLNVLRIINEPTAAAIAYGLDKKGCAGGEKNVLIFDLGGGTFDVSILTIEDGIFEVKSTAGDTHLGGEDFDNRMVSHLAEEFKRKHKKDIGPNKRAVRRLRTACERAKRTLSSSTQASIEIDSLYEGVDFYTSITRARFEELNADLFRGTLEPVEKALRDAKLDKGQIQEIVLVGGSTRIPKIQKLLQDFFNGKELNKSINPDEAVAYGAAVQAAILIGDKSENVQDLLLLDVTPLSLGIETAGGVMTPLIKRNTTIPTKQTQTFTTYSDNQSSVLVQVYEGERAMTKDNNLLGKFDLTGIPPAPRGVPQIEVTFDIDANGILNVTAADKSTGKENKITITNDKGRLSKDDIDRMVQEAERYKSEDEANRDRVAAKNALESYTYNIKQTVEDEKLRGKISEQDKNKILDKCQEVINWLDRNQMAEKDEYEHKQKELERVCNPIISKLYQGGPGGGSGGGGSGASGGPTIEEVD
UniProt O43390: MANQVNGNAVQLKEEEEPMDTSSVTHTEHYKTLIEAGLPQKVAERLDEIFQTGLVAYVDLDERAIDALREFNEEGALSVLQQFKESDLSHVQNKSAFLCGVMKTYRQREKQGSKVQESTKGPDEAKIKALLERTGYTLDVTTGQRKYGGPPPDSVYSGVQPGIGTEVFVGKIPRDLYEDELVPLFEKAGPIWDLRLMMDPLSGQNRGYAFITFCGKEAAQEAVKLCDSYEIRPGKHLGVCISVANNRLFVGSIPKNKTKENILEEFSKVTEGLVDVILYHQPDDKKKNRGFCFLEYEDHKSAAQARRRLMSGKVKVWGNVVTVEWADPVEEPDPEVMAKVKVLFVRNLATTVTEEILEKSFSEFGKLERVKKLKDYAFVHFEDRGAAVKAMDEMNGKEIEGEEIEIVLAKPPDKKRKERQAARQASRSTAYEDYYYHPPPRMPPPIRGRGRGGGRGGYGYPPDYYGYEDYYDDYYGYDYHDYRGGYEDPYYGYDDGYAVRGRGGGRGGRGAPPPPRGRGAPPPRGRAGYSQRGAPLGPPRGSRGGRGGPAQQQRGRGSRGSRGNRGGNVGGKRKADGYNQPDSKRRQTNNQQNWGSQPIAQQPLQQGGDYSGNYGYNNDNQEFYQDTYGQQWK
UniProt P13598: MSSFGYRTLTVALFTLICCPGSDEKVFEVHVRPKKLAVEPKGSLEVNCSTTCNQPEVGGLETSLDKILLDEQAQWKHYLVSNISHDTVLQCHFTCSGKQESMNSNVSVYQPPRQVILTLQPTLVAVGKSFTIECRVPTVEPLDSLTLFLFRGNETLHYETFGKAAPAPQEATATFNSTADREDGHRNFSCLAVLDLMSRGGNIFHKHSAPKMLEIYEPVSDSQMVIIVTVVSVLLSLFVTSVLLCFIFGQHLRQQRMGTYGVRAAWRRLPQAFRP
UniProt Q58FF7, whole entry, looked up: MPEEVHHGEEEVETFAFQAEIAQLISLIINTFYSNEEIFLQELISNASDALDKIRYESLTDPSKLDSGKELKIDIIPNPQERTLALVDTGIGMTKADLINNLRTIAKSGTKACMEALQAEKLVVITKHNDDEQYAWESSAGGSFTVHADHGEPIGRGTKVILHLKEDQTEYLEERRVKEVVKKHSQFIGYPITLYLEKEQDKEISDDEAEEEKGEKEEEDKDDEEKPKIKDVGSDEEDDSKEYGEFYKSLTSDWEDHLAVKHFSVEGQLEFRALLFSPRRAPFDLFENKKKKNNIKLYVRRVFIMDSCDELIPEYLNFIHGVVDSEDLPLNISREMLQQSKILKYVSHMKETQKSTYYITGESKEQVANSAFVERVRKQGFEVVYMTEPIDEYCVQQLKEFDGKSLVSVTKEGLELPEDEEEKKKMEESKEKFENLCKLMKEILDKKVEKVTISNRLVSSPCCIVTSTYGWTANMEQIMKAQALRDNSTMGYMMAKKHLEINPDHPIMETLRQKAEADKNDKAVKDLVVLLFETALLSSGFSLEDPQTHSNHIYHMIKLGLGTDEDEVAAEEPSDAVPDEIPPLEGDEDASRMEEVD
UniProt H0YH80: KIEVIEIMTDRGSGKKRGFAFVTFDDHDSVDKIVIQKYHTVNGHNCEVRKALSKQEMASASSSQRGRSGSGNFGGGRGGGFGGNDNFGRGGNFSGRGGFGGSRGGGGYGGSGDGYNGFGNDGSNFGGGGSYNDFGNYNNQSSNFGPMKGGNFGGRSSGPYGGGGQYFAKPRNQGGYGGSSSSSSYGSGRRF
UniProt Q01581: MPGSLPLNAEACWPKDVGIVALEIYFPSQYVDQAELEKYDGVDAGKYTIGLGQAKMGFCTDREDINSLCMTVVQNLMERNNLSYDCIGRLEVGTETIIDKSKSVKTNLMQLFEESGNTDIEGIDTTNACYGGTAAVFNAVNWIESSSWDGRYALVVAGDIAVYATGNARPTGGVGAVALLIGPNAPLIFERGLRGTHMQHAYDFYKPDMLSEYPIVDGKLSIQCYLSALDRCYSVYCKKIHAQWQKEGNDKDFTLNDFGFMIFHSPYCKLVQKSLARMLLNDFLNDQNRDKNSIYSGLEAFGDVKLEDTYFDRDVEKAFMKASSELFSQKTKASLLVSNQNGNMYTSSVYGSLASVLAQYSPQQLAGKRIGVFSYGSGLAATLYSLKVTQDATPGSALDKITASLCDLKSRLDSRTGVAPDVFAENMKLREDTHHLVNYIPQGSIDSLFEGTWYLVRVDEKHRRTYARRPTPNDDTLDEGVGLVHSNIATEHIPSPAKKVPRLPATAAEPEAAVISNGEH
UniProt P13747, whole entry, looked up: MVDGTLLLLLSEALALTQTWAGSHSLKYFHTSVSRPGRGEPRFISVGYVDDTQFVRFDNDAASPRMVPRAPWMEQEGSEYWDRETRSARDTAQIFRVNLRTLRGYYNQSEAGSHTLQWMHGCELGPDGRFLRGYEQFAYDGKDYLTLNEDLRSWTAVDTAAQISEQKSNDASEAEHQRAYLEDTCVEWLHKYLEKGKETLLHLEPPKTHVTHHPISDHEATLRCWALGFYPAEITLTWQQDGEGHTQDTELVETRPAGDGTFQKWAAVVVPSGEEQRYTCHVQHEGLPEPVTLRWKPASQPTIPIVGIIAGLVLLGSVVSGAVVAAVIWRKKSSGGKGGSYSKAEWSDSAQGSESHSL
UniProt Q9BX68: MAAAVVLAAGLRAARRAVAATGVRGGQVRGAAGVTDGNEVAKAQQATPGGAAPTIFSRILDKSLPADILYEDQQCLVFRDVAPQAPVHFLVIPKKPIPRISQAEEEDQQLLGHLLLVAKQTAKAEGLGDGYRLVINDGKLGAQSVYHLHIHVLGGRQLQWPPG
UniProt Q9UMF0: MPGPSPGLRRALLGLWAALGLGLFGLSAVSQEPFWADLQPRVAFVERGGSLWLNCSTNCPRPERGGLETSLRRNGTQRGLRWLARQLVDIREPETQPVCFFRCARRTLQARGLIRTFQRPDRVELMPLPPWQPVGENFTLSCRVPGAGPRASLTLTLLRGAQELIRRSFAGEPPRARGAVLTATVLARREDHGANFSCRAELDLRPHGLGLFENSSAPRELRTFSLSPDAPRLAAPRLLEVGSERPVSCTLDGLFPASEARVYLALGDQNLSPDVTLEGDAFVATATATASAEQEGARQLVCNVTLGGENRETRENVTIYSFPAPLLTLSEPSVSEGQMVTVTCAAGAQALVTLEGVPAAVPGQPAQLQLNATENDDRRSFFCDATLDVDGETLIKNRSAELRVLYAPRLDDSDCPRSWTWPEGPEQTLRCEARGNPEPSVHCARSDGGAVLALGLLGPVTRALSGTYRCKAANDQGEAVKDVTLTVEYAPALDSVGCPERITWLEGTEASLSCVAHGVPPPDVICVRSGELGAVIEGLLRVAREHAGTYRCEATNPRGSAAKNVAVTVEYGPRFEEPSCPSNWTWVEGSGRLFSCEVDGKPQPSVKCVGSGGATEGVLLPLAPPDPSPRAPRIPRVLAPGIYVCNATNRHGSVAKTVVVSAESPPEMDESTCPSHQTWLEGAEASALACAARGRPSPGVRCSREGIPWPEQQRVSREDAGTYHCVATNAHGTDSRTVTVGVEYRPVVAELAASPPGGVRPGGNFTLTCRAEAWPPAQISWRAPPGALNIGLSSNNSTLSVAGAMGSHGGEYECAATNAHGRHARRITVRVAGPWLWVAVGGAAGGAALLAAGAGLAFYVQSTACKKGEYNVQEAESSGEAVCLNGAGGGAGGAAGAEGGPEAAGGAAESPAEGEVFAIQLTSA
UniProt Q13151: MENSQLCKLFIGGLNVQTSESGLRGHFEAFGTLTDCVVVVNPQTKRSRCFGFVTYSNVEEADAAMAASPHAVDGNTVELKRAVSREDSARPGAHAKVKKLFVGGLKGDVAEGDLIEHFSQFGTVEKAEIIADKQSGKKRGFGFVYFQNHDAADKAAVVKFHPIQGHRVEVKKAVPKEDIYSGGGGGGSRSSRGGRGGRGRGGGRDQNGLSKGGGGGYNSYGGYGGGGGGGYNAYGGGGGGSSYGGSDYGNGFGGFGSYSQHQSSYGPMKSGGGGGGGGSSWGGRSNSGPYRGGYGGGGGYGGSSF

Tests used:
Assay in all cases: log2 fold change, soluble protein after heating vs DMSO (PISA); higher = thermal stabilisation; K562 cells, 10 uM, 30 min; active = over 0.2 and 3.5 SD of the protein, either way, in both replicates (recomputed)
[1] = compound: CC1=C(C=C(C=C1)NC(=O)C2=CC(=CC=C2)C(C)(C)C#N)NC3=CC4=C(C=C3)N=CN(C4=O)C
Method in brief: (§1)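 Aliquots of K562 cells (2×10^6 cells/mL) treated with 10 μM compound for 30 min were heated for 3 min over 48°C-58°C. After pooling and extraction in PBS with 0.5% NP-40 at 4°C, soluble protein from a 21,000xg, 90 min spin was quantified by TMTpro 16plex LC-MS/MS with channel sums equalised. Thermal stability is expressed against control samples, from duplicates, as a log2 fold change.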

[2] = compound: CC1=C(C=C(C=C1)NC(=O)C2=CC(=CC=C2)N(C)C)NC(=O)C3=CC=C(C=C3)O
Method in brief: as §1

[3] = compound: CC1=CC=C(C=C1)SC2=C3C=C(SC3=CN=C2)C(=O)N
Method in brief: as §1

[4] = compound: CC1=NC(=CC=C1)C2=C(N=C(N2)C(C)(C)C)C3=CC4=NC=CN=C4C=C3
Method in brief: as §1

[5] = compound: CCCCN(Cc1ccc(C(=O)NO)cc1)C(=O)Nc1ccccc1 [Nexturastat A]
Method in brief: as §1

[6] = compound: CCCS(=O)(=O)Nc1ccc(F)c(C(=O)c2c[nH]c3ncc(-c4ccc(Cl)cc4)cc23)c1F [vemurafenib]
Method in brief: as §1

[7] = compound: CCCS(=O)(=O)Nc1ccc(F)c(C(=O)c2c[nH]c3ncc(Cl)cc23)c1F
Method in brief: as §1

[8] = compound: CCN(CC)Cc1ccc2cc(COC(=O)Nc3ccc(C(=O)NO)cc3)ccc2c1 [givinostat]
Method in brief: as §1

[9] = compound: CCN(CCCOc1ccc2c(Nc3cc(CC(=O)Nc4cccc(F)c4)[nH]n3)ncnc2c1)CCOP(=O)(O)O [barasertib]
Method in brief: as §1

[10] = compound: CCCc1cc(C)[nH]c(=O)c1CNC(=O)c1cc(-c2ccnc(N3CCN(C)CC3)c2)cc2c1cnn2C(C)C
Method in brief: as §1

Measured: log2 fold change

HS1BP3 (UniProt Q53T59)
inactive: [1] 0.023 | [2] -0.045 | [3] -0.109 | [4] -0.046 | [5] 0.052 | [6] 0.132 | [7] 0.021 | [8] 0.111 | [9] 0.047

HSPA2 (UniProt P54652)
inactive: [1] -0.109 | [2] 0.046 | [4] -0.039 | [10] 0.057 | [8] 0.13 | [9] -0.004

HNRNPR (UniProt O43390)
inactive: [1] 0.169 | [3] -0.207 | [4] -0.168 | [5] 0.218 | [7] -0.226 | [10] 0.029 | [9] -0.139

ICAM2 (UniProt P13598)
inactive: [1] 0.015 | [2] 0.015 | [3] 0.047 | [4] 0.053 | [5] -0.123 | [6] -0.005 | [7] 0.018 | [10] 0.031 | [8] -0.036 | [9] -0.023

HMGN4 (UniProt O00479)
inactive: [1] 0.226 | [2] -0.001 | [3] 0.189 | [4] -0.104 | [5] -0.119 | [6] -0.011 | [7] 0.299 | [10] 0.797 | [8] -0.112 | [9] -0.272

HSP90AB3P (UniProt Q58FF7)
inactive: [1] -0.008 | [2] 0.021 | [3] 0.134 | [4] 0.036 | [7] 0.075 | [10] 0.128 | [8] 0.069 | [9] 0.03

HNRNPA1 (UniProt H0YH80)
inactive: [1] -0.065 | [2] 0.074 | [4] -0.174 | [5] 0.384 | [6] -0.21 | [10] 0.116 | [9] -0.177

HMGCS1 (UniProt Q01581)
inactive: [1] -0.022 | [2] 0.019 | [3] -0.004 | [4] 0.008 | [5] -0.031 | [6] -0.041 | [7] -0.005 | [10] -0.011 | [8] -0.014 | [9] 0.017

HLA-E (UniProt P13747)
inactive: [1] -0.065 | [3] 0.061 | [4] 0.096 | [5] -0.065 | [7] -0.173 | [9] -0.097

HINT2 (UniProt Q9BX68)
inactive: [1] 0.081 | [2] -0.066 | [3] -0.008 | [4] 0.153 | [6] 0.045 | [7] -0.035 | [10] -0.025 | [8] -0.014 | [9] 0.026

HNRNPK isoform 3 (UniProt P61978)
inactive: [1] -0.015 | [2] 0.027 | [4] 0.066 | [5] 0.085 | [6] -0.066 | [10] -0.067 | [8] 0.062 | [9] -0.136

ICAM5 (UniProt Q9UMF0)
inactive: [1] -0.002 | [2] 0.069 | [4] -0.079 | [5] 0.113 | [6] 0.075 | [10] -0.08 | [8] 0.098 | [9] 0.087

HNRNPA0 (UniProt Q13151)
inactive: [1] 0.095 | [3] -0.069 | [4] -0.099 | [5] 0.101 | [6] -0.117 | [7] 0.062 | [10] 0.098 | [8] 0.223 | [9] -0.052
